In paper PMC4636238:
No constants are given. Whether binding was seen depends on the method and setting. Some results given as binding are weak or reduced against the parent protein; the word gives no strength. Sequences can lack the tags named with a protein.

Target: T1, salivary amylase (human) (UniProt P0DUB6)
T1 sequence: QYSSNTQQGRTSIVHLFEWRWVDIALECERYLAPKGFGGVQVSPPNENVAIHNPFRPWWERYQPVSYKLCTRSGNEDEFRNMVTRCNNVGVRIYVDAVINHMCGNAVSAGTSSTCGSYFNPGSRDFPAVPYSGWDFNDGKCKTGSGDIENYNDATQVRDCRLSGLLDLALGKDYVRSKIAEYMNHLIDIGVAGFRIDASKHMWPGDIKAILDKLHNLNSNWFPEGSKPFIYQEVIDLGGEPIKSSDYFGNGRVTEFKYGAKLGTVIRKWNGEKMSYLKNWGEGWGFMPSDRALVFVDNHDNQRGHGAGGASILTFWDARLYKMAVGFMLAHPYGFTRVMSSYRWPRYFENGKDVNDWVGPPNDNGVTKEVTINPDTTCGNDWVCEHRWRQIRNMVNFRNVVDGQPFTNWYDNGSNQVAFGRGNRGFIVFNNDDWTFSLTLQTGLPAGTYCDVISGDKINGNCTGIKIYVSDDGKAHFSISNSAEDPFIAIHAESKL
Assay: native gel or EMSA; 40 nmol/mL synthetic histatin 5 with 40 nmol/mL salivary amylase in 50 mM NaCl, pH 7.0, 37°C, 2 h; complex recovered on a PD-10 desalting Sephadex column; 12% native PAGE; both purified

binding: binds
Binder: DSHAKRHHGYKRKFHEKHHSHRGY (peptide, UniProt P15516 20-43) [histatin 5]
